Data reported in patent US8748575B2 (Combimab, Inc., priority 2010, dated 2014).

experiment: peptide synthesis; settings: whole synthesis, HPLC

Substance | purity (crude or final not stated) [%]
H2N Cys Cys Glu Leu Cys Cys Asn Dhp Ala Cys Ala Gly Cys Tyr COOH | 98
H2N Cys Cys Glu L-Thr Cys Cys Asn Pro Ala Cys Ala Gly Cys Tyr COOH (CCETCCNPACAGCY) | 97
H2N Cys Cys Glu Leu Cys Cys Asn Thz Ala Cys Ala Gly Cys Tyr COOH | 99
H2N Cys Cys Glu Leu Cys Cys Asn HyPro Ala Cys Ala Gly Cys Tyr COOH | 95
